# Results taken from patent US20090041783A1.
# Results are given in words; binding and its absence hold for the method and conditions named. Some binding calls cover weakened binding; strength is not graded here.
# What was measured:
# [1] = target: cynomolgus monkey D1D2-human D3 chimeric GPVI-human Fc fusion protein (GPVI-FFH-hFc) (cynomolgus monkey (D1, D2) and human (D3)); experiment: ELISA on immobilised GPVI-FFH-hFc, anti-human kappa detection
# [2] = target: hGPVI-mL9-hFc (human (loop 9 from mouse)); experiment: ELISA of hybridoma culture supernatant on coated hGPVI-mL9-hFc (selection criterion)
binding [1],Binder,binding [2]
binds,"mouse-human chimeric anti-GPVI antibody (Clone No. F1232-7-1) (antibody, IgG4, V domains shown) VH: VQLQQSGPELVRPGESVKISCKGSGYTFTDYAIHWVKLSHAKSLEWIGVISIYYDDTNYNQKFKGKATMTVDKSSSTAYMELARLTSEDSAIYYCARRRDSSGPYAMDYWGQGTSVTVSS VL: DIVLTQSPASLAVSLGQRATISCRASESVDSYGNSFMHWYQQKPGQPPKLLIYRASNLESGIPARFSGSGSRTDFTLTINPVEADDVATYYCQQSNEDPYTFGGGTKLEIKR",–
–,"F1257-3-1 (antibody, V domains shown) VH: QVTLKESGPGMLQPSKTLSLTCSFSGFSLSTSGMVVSWIRQPSGKSLEWLAAIDWDGDKYYNPSLKSRLTVSKDTSNTQVFLKISSVDIADTATYYCARTPYYGYKEAYYFDYWGQGVKVTVSS VL: DIQMTQSPASLSASLEEIVTITCKASRAIDDYLSWYQQKPGKSPQLLIYDATSLADGVPSRFSGSRSGTQYSLKISRPQVDDSGIYYCLQSYSTPWTFGGGTKLDLKR",no binding (tested: absorbance equal to or less than 0.5)
